Experimental data as given in patent US20110293618A1 (MEDICAL AND BIOLOGICAL LABORATORIES, published 2011).
Results are given in words; binding and its absence hold for the method and conditions named. Some results given as binding are weak or reduced against the parent protein; the word gives no strength. Tags and fused reporters may be left off the sequences shown.

T1: GST461-70 (GST fusion with aa 461-aa 470 of SEQ ID NO: 2) (human)
T1 sequence: TQPPPPRNSN

T2: GST456-65 (GST fusion with aa 456-aa 465 of SEQ ID NO: 2) (human)
T2 sequence: RPPKLTQPPP

B1: FA17-9 (antibody, V domains shown)
VH: EVQLQQSGPELVKPGASVKMSCKASGYTFTTYVMHWVKQKPGQGLEWIGYINPYNDGTKYNEKFKGKATLTSDKSSSTAYMELSSLTSEDSAVYYCARGANYYGSSYNWSFDVWGAGTTVTVSS
VL: DIQMTQSPSSLSASLGGKVTITCKASQDINKYIAWYQHKPGEGPRLLIHYTSTLQPGIPSRFSGSGSGRDYSFSISNLEPEDIATYYCLQYDYLWTFGGGTKL
notes: Mouse monoclonal; also called antibody No. FA17-9; Antibody 1
B2: FA19-1 (antibody, V domains shown)
VH: EVQLQQSGPELVKPGASVKMSCKASGYTFTTYIMHWVKQKPGQGLEWIGYINPYNDGTKYNEKFKGEATLTSDKSSSTAYMELSSLTSEDSAVYYCARGANYYGSNYNWSFDVWGAGTTVTVSS
VL: DIQMTQSPSSLSASLGGKVTITCRASQDINKYIAWYQHKPGKGPRLLIHHTCTLQPGIPSRFSGSGSGRDYSFSISNLEPEDIATYYCLQYDYLWTFGGGTKL
notes: Mouse monoclonal; also called antibody No. FA19-1; Antibody 2
B3: 6AA-17-2 (antibody, V domains shown)
VH: EVQLQQSGAELVRPGALVKLSCKASGFNIKDYYMHWVKQRPEQGLEWIGWIDPENDNTIYDPKFQGKASITADTSSNTAYLHLSSLTSEDTAVYYCARAYGYDDYYAMEYWGQGTSVTVSS
VL: NIMMTQSPSSLAVSAGEKVTMSCKSSQSVLYSSNQKNYLAWYQQKPGQSPKLLIYWTSTRESGVPDRFTGSGSGTDFTLTISSVQAEDLAIYYCHQYLYSYTFGGGTKL
notes: Mouse monoclonal raised against the partial protein containing the FA58C domain; also called Antibody 3

How the values were obtained:
[1] = target: T1, GST461-70 (GST fusion with aa 461-aa 470 of SEQ ID NO: 2) (human); assay: ELISA on GST fusion proteins
[2] = target: T1, GST461-70 (GST fusion with aa 461-aa 470 of SEQ ID NO: 2) (human); assay: ELISA, plates immobilized with GST proteins at 0.5 ug/ml (FIG. 44)
[3] = target: T2, GST456-65 (GST fusion with aa 456-aa 465 of SEQ ID NO: 2) (human); assay: ELISA on GST fusion proteins
[4] = target: T2, GST456-65 (GST fusion with aa 456-aa 465 of SEQ ID NO: 2) (human); assay: ELISA, plates immobilized with GST proteins at 0.5 ug/ml (FIG. 44)

binding [1]	binding [2]	binding [3]	binding [4]	Binder
binds	binds			B1
binds	binds			B2
		binds	binds	B3
